The test relates to L1210 leukemia ip in BDF1 mice, survival T/C. Nature of the test: NCI In Vivo Anticancer Drug Screen. Data for tumor model L1210 Leukemia (intraperitoneal) in B6D2F1 (BDF1) mice. Conditions: higher T/C = longer survival.
Setting [1] is: T/C endpoint: mean survival time, dose: 400.0 mg/kg/injection, schedule: Q01DX001 (ip), vehicle: saline.
Where [2] appears, read: T/C endpoint: mean survival time, dose: 200.0 mg/kg/injection, schedule: Q01DX009 (ip), vehicle: saline.
Where [3] appears, read: T/C endpoint: mean survival time, dose: 400.0 mg/kg/injection, schedule: Q04DX003 (ip), vehicle: saline.
[4] abbreviates: T/C endpoint: mean survival time, dose: 400.0 mg/kg/injection, schedule: Q04DX003 (ip), vehicle: saline with Tween-80.
Setting [5] is: T/C endpoint: mean survival time, dose: 100.0 mg/kg/injection, schedule: Q01DX009 (ip), vehicle: saline with Tween-80.
[6] abbreviates: T/C endpoint: mean survival time, dose: 200.0 mg/kg/injection, schedule: Q01DX009 (ip), vehicle: saline with Tween-80.
The mark [7] stands for this setting: T/C endpoint: mean survival time, dose: 50.0 mg/kg/injection, schedule: Q04DX003 (ip), vehicle: saline.
Setting [8] is: T/C endpoint: mean survival time, dose: 75.0 mg/kg/injection, schedule: Q04DX003 (ip), vehicle: saline.
[9] abbreviates: T/C endpoint: mean survival time, dose: 100.0 mg/kg/injection, schedule: Q04DX003 (ip), vehicle: saline.
Setting [10] is: T/C endpoint: mean survival time, dose: 200.0 mg/kg/injection, schedule: Q01DX001 (ip), vehicle: saline.
Where [11] appears, read: T/C endpoint: mean survival time, dose: 200.0 mg/kg/injection, schedule: Q04DX003 (ip), vehicle: saline.
The mark [12] stands for this setting: T/C endpoint: mean survival time, dose: 25.0 mg/kg/injection, schedule: Q01DX009 (ip), vehicle: saline.
Where [13] appears, read: T/C endpoint: mean survival time, dose: 400.0 mg/kg/injection, schedule: Q01DX001 (ip), vehicle: saline with Tween-80.

The list does not hold the whole screen: it is rich in T/C values a quarter to a half above the control, in often repeated tests (any T/C) and in doses without a T/C. Further doses and runs are listed elsewhere. T/C: endpoint of the treated group in % of that of the vehicle group. Some doses have a count of surviving animals in place of a T/C: the source files T/C as zero there, which appears to mark a toxic dose or a test without result, not a measured value. Some doses without a T/C left all or most animals alive at the check, yet need not have been tolerated: survival well below the control is almost never listed, so the zero probably covers shortened survival too. Counts of survivors are from the toxicity check (mostly the fifth day) where no day follows; animals may have died later. Schedules are NCI's codes, taken here to give the interval after Q, in days (D) or hours (H), and the number of doses after X. Some doses were run more than once; the values are given in rising order. Some schedule codes hold Z or #, which are not explained here. Where survival is the endpoint, the PubChem record calls one and a half times the control and up active, and a quarter to a half above the control has no call in these data; cut-offs in other NCI protocols can differ. Some T/C values are followed by the survivors on the day toxicity was checked, most often the fifth; without a count, all were alive then.

Regarding `CN(C)c1nc(N)c(C#N)c(C#N)c1C#N`, the survivor count under setting [1] was 0 of 4.
For `NC(=O)Cc1ccc(O)cc1`, the T/C (T/C endpoint: mean survival time, dose: 100.0 mg/kg/injection, schedule: Q04DX002 (ip), vehicle: saline) is 139 % of control.
As for `CCOCCCN`, the survivor count by setting is: under setting [2], 2 of 6; under setting [3], 3 of 6.
Turning to `O=C(Nc1ccc(C2=NCCCN2)cc1)N1CCN(C(=O)Nc2ccc(C3=NCCCN3)cc2)CC1`, the survivor count by setting is: (T/C endpoint: mean survival time, dose: 40.0 mg/kg/injection, schedule: Q01DX Z (ip), vehicle: water) 1 of 6; (T/C endpoint: mean survival time, dose: 80.0 mg/kg/injection, schedule: Q01DX Z (ip), vehicle: water) 0 of 6.
Take `O=[N+]([O-])c1ccc(O)c(CCl)c1`: the survivor count (T/C endpoint: mean survival time, dose: 400.0 mg/kg/injection, schedule: Q04DX002 (ip), vehicle: DMSO) was 2 of 3.
Take `CN=C(N)NC`: the survivor count under setting [4] is 5 of 6.
`CCOC(=O)c1c[nH]c2oc(/C=N/N3CC(CN4CCOCC4)OC3=O)cc2c1=O` (stereo not given): the T/C runs as follows: (T/C endpoint: median survival time, dose: 100.0 mg/kg/injection, schedule: Q01DX009 (ip), vehicle: acid diluted with saline) 130 % of control; (T/C endpoint: median survival time, dose: 400.0 mg/kg/injection, schedule: Q01DX009 (ip), vehicle: acid diluted with saline) 130 % of control.
As to `CC(=O)N/N=C/C=C/c1ccccc1`, the survivor count by setting is: (T/C endpoint: mean survival time, dose: 12.5 mg/kg/injection, schedule: Q01DX009 (ip), vehicle: saline with Tween-80) 3 of 3; (T/C endpoint: mean survival time, dose: 50.0 mg/kg/injection, schedule: Q01DX009 (ip), vehicle: saline with Tween-80) 1 of 3; under setting [5], 0 of 3; under setting [6], 0 of 3.
Regarding `c1nc(SC2=NCCN2)c2[nH]cnc2n1`, the T/C was 128 % of control (T/C endpoint: mean survival time, dose: 10.5 mg/kg/injection, schedule: Q01DX Z (ip), vehicle: saline); 131 and 132 % of control (T/C endpoint: mean survival time, dose: 21.0 mg/kg/injection, schedule: Q01DX Z (ip), vehicle: saline); 126 % of control (T/C endpoint: mean survival time, dose: 21.0 mg/kg/injection, schedule: Q01DX Z (oral), vehicle: saline); 126 % of control (T/C endpoint: mean survival time, dose: 34.0 mg/kg/injection, schedule: Q01DX009 (ip), vehicle: saline); 136 and 136 % of control [5 of 6 alive] (T/C endpoint: mean survival time, dose: 42.0 mg/kg/injection, schedule: Q01DX Z (oral), vehicle: saline); 125 % of control under setting [7]. Besides, the T/C under setting [8] is 146 % of control [5 of 6 alive] and the T/C (T/C endpoint: mean survival time, dose: 84.0 mg/kg/injection, schedule: Q01DX Z (oral), vehicle: saline) was 147 % of control. Further, the survivor count (T/C endpoint: mean survival time, dose: 75.0 mg/kg/injection, schedule: Q01DX009 (ip), vehicle: saline) is 1 of 6; the survivor count under setting [8] is recorded as 1 of 6; the survivor count (T/C endpoint: mean survival time, dose: 80.0 mg/kg/injection, schedule: Q01DX001 (ip), vehicle: saline) is 0 of 4; the survivor count (T/C endpoint: mean survival time, dose: 84.0 mg/kg/injection, schedule: Q01DX Z (ip), vehicle: saline) is reported as 2 of 6; the survivor count (T/C endpoint: mean survival time, dose: 100.0 mg/kg/injection, schedule: Q01DX001 (ip), vehicle: saline) is listed as 1 of 4; the survivor count under setting [9] was 0 of 6. The survivor count (T/C endpoint: mean survival time, dose: 168.0 mg/kg/injection, schedule: Q01DX Z (ip), vehicle: saline) is reported as 0 of 6; the survivor count under setting [10] was 0 of 4; the survivor count under setting [11] was 0 of 6; the survivor count (T/C endpoint: mean survival time, dose: 336.0 mg/kg/injection, schedule: Q01DX Z (oral), vehicle: saline) was 0 of 6; the survivor count under setting [1] was 0 of 4; the survivor count under setting [3] is 0 of 6.
For `CCc1ccc2c(c1)N(CC(C)CN(C)C)c1ccccc1S2` (stereo not given), the survivor count runs as follows: under setting [12], 3 of 6; under setting [7], 0 of 4; under setting [9], 0 of 4; under setting [11], 0 of 4.
Consider `OC(CN1CCCCC1)c1ccc(/C=C/c2ccc(Cl)cc2)cc1` (stereo not given), for which the survivor count is on record as 6 of 6 (T/C endpoint: mean survival time, dose: 25.0 mg/kg/injection, schedule: Q01DX009 (ip), vehicle: saline with Tween-80); 6 of 6 (T/C endpoint: mean survival time, dose: 50.0 mg/kg/injection, schedule: Q04DX003 (ip), vehicle: saline with Tween-80); 6 of 6 (T/C endpoint: mean survival time, dose: 100.0 mg/kg/injection, schedule: Q04DX003 (ip), vehicle: saline with Tween-80); 6 of 6 (T/C endpoint: mean survival time, dose: 200.0 mg/kg/injection, schedule: Q01DX001 (ip), vehicle: saline with Tween-80); 2 of 6 under setting [13].
With `NC(=O)N1Cc2ccccc2CCc2ccccc2C1`, where the note is “T/C endpoint: mean survival time, dose: 200.0 mg/kg/injection, schedule: Q04DX003 (ip), vehicle: Klucel (hydroxypropylcellulose) (HPC)”, the survivor count is on record as 6 of 6.
Turning to `[Cu+2].[NH-]C(CCC(N)=O)C(=O)O.[NH-]C(CCC(N)=O)C(=O)O` (stereo not given), the survivor count is 0 of 6 under setting [9], 0 of 6 under setting [11] and 0 of 6 under setting [3].
With `COc1ccc2c3c([nH]c2c1)C(C)=NCC3`, the survivor count was 1 of 3 (T/C endpoint: mean survival time, dose: 200.0 mg/kg/injection, schedule: Q04DX002 (ip), vehicle: Klucel (hydroxypropylcellulose) (HPC)) and 0 of 3 (T/C endpoint: mean survival time, dose: 400.0 mg/kg/injection, schedule: Q04DX002 (ip), vehicle: Klucel (hydroxypropylcellulose) (HPC)).
As for `CC(=O)OC1(c2ccccc2)OC(=O)C(C)(C)c2ccccc21` (stereo not given), under setting [13], the survivor count is reported as 3 of 6.
Take `O=C1c2cscc2C(=O)c2c(Cl)sc(Cl)c21`: the survivor count runs as follows: (T/C endpoint: mean survival time, dose: 200.0 mg/kg/injection, schedule: Q04DX003 (ip), vehicle: acetone) 5 of 6; (T/C endpoint: mean survival time, dose: 400.0 mg/kg/injection, schedule: Q04DX003 (ip), vehicle: acetone) 4 of 6.
For the compound `O=C1OC(=O)c2c1cccc2[N+](=O)[O-]`, the survivor count by setting is: under setting [6], 3 of 6; (T/C endpoint: mean survival time, dose: 400.0 mg/kg/injection, schedule: Q01DX009 (ip), vehicle: saline with Tween-80) 0 of 6.
Turning to `COc1cc2c(c(OC)c1OC)-c1ccc(OC)c(=O)cc1C(=O)CC2`, the survivor count runs as follows: (T/C endpoint: mean survival time, dose: 100.0 mg/kg/injection, schedule: Q01DX001 (ip), vehicle: carboxymethylcellulose (CMC)) 1 of 4; (T/C endpoint: mean survival time, dose: 200.0 mg/kg/injection, schedule: Q01DX001 (ip), vehicle: carboxymethylcellulose (CMC)) 0 of 4; (T/C endpoint: mean survival time, dose: 400.0 mg/kg/injection, schedule: Q01DX001 (ip), vehicle: carboxymethylcellulose (CMC)) 0 of 4.
For `Cc1c2cnccc2c(C)c2c1c1ccccc1n2CCCN`, the survivor count is reported as 6 of 6 under setting [7]; 2 of 6 under setting [9]; 0 of 6 under setting [11]; 3 of 6 (T/C endpoint: mean survival time, dose: 400.0 mg/kg/injection, schedule: Q01DX001 (oral), vehicle: saline); 0 of 6 under setting [3].
Consider `O=C1C=CC(=O)c2[nH]c(-c3ccccc3)cc21`, for which the survivor count (T/C endpoint: mean survival time, dose: 50.0 mg/kg/injection, schedule: Q04DX002 (ip), vehicle: Klucel (hydroxypropylcellulose) (HPC)) is listed as 0 of 3.
On to `Nc1cc(S(=O)O)c2cccnc2c1O`, for which, where the note is “T/C endpoint: mean survival time, dose: 400.0 mg/kg/injection, schedule: Q04DX003 (ip), vehicle: Klucel (hydroxypropylcellulose) (HPC)”, the survivor count was 5 of 6.
In the case of `Cc1ccc(NC(=O)NCC2(C)CC(NC(=O)Nc3ccc(C)cc3)CC(C)(C)C2)cc1` (stereo not given), the survivor count is 6 of 6 under setting [5], 6 of 6 under setting [6] and 6 of 6 under setting [4].
As to `OC(CN1CCCC1)c1cc2cc(Br)ccc2s1` (stereo not given), the survivor count under setting [10] is given as 2 of 6 and the survivor count under setting [1] was 0 of 6.
Turning to `CCCCC(CC)CCC(C)O` (stereo not given), the survivor count reads like this: under setting [6], 6 of 6; under setting [4], 6 of 6.
As for `CCN1C(=O)CC2(CCN(C)CC2)C1=O`, the T/C under setting [12] is 130 % of control [5 of 6 alive]. The survivor count was 0 of 6 and 6 of 6 under setting [2]; 0 of 6 (T/C endpoint: mean survival time, dose: 400.0 mg/kg/injection, schedule: Q01DX009 (ip), vehicle: saline).
Consider `O=C(O)c1cnc(Cl)c([N+](=O)[O-])c1`, for which the survivor count under setting [4] is listed as 0 of 6.

Values taken from PubChem BioAssay AID248 (DTP/NCI, 2004).
